Assay results from PMC5343486.
Results are given in words; binding and its absence hold for the method and conditions named. In cells and extracts the contact can be indirect. Some binding calls cover weakened binding; strength is not graded here. Sequences can lack the tags named with a protein.

T1: RecA (E. coli (endogenous in MG1655-derived WT strains)), P0A7G6
T1 chain: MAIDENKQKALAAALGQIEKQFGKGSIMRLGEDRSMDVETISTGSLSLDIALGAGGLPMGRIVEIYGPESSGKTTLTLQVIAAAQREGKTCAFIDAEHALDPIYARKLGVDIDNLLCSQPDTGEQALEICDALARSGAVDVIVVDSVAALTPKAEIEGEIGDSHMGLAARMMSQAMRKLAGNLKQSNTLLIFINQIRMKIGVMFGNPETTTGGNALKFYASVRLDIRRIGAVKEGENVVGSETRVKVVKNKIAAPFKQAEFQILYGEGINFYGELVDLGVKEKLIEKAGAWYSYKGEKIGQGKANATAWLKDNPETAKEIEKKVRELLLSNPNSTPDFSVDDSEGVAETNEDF

T2: RecN-Flag (E. coli), P05824
T2 chain: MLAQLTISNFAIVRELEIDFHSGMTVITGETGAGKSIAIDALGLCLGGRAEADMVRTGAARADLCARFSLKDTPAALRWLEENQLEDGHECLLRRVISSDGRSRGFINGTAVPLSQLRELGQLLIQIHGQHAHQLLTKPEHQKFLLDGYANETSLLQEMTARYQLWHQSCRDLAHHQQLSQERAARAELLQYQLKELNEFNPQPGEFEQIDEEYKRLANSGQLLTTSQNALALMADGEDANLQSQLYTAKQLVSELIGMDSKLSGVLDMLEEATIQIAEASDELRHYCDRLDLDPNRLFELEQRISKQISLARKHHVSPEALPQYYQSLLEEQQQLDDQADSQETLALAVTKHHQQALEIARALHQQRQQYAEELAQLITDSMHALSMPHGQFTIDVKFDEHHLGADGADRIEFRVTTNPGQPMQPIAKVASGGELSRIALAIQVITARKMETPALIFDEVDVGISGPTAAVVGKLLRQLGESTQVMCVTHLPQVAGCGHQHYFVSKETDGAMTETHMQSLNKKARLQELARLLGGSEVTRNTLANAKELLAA

B1: RecN-Flag, P05824 1-553 (protein)
chain: T2 chain
B2: RecA, P0A7G6 1-353 (protein)
chain: T1 chain

Key:
[1] = molecular target: T1, RecA (E. coli (endogenous in …)); assay: co-IP; immunoprecipitation with an anti RecA antibody from WT E. coli strains expressing RecN-Flag, RecN detected; cells with or without MMC; settings: remark: other sources report otherwise
[2] = molecular target: T2, RecN-Flag (E. coli), P05824; assay: co-IP; immunoprecipitation with an anti Flag antibody from WT E. coli strains expressing RecN-Flag, RecA detected; with or without MMC and RecN-Flag induction; settings: remark: other sources report otherwise

Binder | binding [1] | binding [2]
B1 | binds | 
B2 |  | binds
